Experimental data as given in article PMC7660924.
Results are given in words; binding and its absence hold for the method and conditions named. Where a sequence is shown, tags or fusion partners need not be part of it.

Amino acid sequences for entries named in this document (tags omitted). Residues count along the entry.
UniProt Q94CL7, residues 208-362: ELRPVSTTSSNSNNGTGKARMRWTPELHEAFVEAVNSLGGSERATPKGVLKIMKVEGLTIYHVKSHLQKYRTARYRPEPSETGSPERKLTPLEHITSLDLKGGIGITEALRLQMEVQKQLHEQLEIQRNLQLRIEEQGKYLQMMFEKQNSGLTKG

Key:
Assay in all cases: two-hybrid; yeast strain AH109; GAL4 activation domain fusions as prey, GAL4 DNA-binding domain fusions as bait; growth on SD/-Leu/-Trp/-His/-Ade, 30°C, 5 d
[1] = molecular target: T1, HRS1 HOMOLOG 4 (HHO4), full length, yeast two-hybrid fusion (Arabidopsis thaliana) (UniProt Q9ZQ85)
T1 sequence: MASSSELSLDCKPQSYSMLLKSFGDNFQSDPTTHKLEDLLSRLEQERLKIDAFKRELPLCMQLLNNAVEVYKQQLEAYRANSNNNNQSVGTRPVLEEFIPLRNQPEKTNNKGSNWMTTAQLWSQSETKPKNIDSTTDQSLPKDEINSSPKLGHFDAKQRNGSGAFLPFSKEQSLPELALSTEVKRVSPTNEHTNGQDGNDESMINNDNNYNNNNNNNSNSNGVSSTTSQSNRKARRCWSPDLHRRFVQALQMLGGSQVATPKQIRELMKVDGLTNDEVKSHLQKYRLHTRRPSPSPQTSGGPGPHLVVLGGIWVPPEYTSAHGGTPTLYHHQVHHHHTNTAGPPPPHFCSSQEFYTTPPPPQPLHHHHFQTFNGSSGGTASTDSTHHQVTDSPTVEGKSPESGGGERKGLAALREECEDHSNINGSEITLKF

[2] = molecular target: T2, HRS1 HOMOLOG 5 (HHO5), full length, yeast two-hybrid fusion (Arabidopsis thaliana) (UniProt F4JRB0)
T2 sequence: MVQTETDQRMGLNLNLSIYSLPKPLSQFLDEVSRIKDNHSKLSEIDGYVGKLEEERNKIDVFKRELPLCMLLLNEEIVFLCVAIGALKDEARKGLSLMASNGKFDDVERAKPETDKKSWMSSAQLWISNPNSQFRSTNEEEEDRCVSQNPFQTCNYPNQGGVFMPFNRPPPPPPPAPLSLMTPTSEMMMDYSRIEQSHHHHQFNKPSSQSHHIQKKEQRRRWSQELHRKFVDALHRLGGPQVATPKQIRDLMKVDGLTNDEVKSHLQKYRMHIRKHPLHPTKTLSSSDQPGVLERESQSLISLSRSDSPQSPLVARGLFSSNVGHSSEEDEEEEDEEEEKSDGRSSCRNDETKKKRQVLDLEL

[3] = molecular target: T3, HRS1 HOMOLOG 6 (HHO6), full length, yeast two-hybrid fusion (Arabidopsis thaliana) (UniProt Q9FX84)
T3 sequence: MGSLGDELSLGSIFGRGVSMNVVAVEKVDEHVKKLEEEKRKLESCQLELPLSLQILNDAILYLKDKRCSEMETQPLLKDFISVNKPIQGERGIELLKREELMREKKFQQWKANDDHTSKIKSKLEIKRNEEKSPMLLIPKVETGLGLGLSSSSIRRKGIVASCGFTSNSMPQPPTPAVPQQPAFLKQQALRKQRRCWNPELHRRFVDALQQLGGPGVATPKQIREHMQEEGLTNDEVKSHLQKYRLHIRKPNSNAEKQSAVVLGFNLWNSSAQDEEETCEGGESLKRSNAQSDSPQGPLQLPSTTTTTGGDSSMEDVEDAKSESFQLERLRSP

Measured: binding

truncated PHOSPHATE STARVATION RESPONSE 1 (PHR1) carrying the GARP domain and CCD (208-362 aa), yeast two-hybrid fusion (from UniProt Q94CL7 208-362) (domain or fragment)
no binding: all assays above
